According to patent US8603466 (KING S COLLEGE LONDON, dated 2013):
No constants are given. Whether binding was seen depends on the method and setting. Some results given as binding are weak or reduced against the parent protein; the word gives no strength.

Sequences of proteins named here, by UniProt entry; tags and fusion partners are left off. Residues count along the entry.
UniProt P16473, residues 21-764: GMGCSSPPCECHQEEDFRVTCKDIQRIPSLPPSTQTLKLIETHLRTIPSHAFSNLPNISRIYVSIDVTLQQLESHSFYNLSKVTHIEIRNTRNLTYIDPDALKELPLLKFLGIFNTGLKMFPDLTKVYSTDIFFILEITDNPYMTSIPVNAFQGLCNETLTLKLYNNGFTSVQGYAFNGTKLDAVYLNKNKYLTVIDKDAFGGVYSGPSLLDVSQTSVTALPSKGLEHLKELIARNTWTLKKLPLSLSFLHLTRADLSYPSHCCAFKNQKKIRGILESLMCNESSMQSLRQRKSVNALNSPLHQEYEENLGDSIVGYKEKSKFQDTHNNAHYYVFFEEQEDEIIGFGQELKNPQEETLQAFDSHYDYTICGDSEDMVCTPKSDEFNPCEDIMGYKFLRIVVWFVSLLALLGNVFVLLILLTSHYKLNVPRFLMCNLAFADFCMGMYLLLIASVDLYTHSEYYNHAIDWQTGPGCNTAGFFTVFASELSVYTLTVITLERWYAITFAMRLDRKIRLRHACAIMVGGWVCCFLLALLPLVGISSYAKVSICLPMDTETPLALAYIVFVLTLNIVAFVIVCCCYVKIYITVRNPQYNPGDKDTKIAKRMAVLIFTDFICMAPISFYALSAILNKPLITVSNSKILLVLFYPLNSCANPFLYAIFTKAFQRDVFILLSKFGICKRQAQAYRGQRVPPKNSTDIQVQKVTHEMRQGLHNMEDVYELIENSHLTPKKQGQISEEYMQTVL

What was measured:
[1] = molecular target: human TSHR immobilised on coated tubes (TRAK II [DYNOtest human] kit) (human) (UniProt P16473); experiment: TBII assay, displacement of 125I-TSH from human TSHR coated tubes
[2] = molecular target: human TSHR immobilised on coated tubes (TRAK II [DYNOtest human] kit) (human) (UniProt P16473); experiment: TBII assay of papain Fab fragments
[3] = molecular target: human TSHR immobilised on coated tubes (TRAK II [DYNOtest human] kit) (human) (UniProt P16473); experiment: competition of 125I-IgG with patients' sera on immobilized human TSHR
[4] = molecular target: human TSHR immobilised on coated tubes (TRAK II [DYNOtest human] kit) (human) (UniProt P16473); experiment: TSH binding inhibition (TRAK) assay and cAMP accumulation with rFab purified from E. coli

Binder	binding [1]	binding [2]	binding [3]	binding [4]
KSAb1 IgG (antibody, V domains shown, also called mAb9; IgG 9) VH: EVQLQQSGPELVKPGASMKISCKASGYSFSAYTMNWVKQSHGKNLEWIGLINPYNGGTNYNQEFEGKATLTVNKSSNTAFMELLSLTSDDSAVYYCARRDWDYFDYWGQGTTLTVSS VL: DIVMTQSQKFMSTSVGDRVSIICKASQNVGTFVAWYQQKPGQSPKLLVYSASNRYTGVPDRFTGSGSGTDFTLTINNMQSEDLADYFCRQYSSYPYTFGGGTKLEI	–	–	binds	–
KSAb1 rFab fragment expressed in E. coli (Fab, V domains shown) VH: EVQLQQSGPELVKPGASMKISCKASGYSFSAYTMNWVKQSHGKNLEWIGLINPYNGGTNYNQEFEGKATLTVNKSSNTAFMELLSLTSDDSAVYYCARRDWDYFDYWGQGTTLTVSS VL: DIVMTQSQKFMSTSVGDRVSIICKASQNVGTFVAWYQQKPGQSPKLLVYSASNRYTGVPDRFTGSGSGTDFTLTINNMQSEDLADYFCRQYSSYPYTFGGGTKLEIKR	–	–	–	binds
KSAb1 Fab fragments (papain digest of IgG) (Fab, V domains shown) VH: EVQLQQSGPELVKPGASMKISCKASGYSFSAYTMNWVKQSHGKNLEWIGLINPYNGGTNYNQEFEGKATLTVNKSSNTAFMELLSLTSDDSAVYYCARRDWDYFDYWGQGTTLTVSS VL: DIVMTQSQKFMSTSVGDRVSIICKASQNVGTFVAWYQQKPGQSPKLLVYSASNRYTGVPDRFTGSGSGTDFTLTINNMQSEDLADYFCRQYSSYPYTFGGGTKLEI	binds	binds	–	–

Second part, the binder after the results:

binding [1]	binding [2]	binding [3]	binding [4]	Binder
binds	binds	–	–	KSAb2 Fab fragments (papain digest of IgG) (Fab, V domains shown) VH: EVQLQQSGPELVKPGASMKISCKASGYSFTAYTMNWVKQTHGKNLEWIGLINPYNGGTNYNQKFEDKATLTVDKSSNTAYMDLLSLTSEDSAVYYCARRDWDYFDYWGQGTTLTVSS VL: DVVMTQSQKFLSTSAGDRVSISCKASQNVGTALAWYQQKPGQSPKLLIYSASNRNTGVPDRFTGRGFGTDFTLTISNMQSEDLADYFCQQYSSYPYTFGGGTRLEI
–	–	binds	–	KSAb2 IgG (antibody, V domains shown, also called mAb17; IgG17) VH: EVQLQQSGPELVKPGASMKISCKASGYSFTAYTMNWVKQTHGKNLEWIGLINPYNGGTNYNQKFEDKATLTVDKSSNTAYMDLLSLTSEDSAVYYCARRDWDYFDYWGQGTTLTVSS VL: DVVMTQSQKFLSTSAGDRVSISCKASQNVGTALAWYQQKPGQSPKLLIYSASNRNTGVPDRFTGRGFGTDFTLTISNMQSEDLADYFCQQYSSYPYTFGGGTRLEI
–	–	–	binds	KSAb2 rFab fragment expressed in E. coli (Fab, V domains shown) VH: EVQLQQSGPELVKPGASMKISCKASGYSFTAYTMNWVKQTHGKNLEWIGLINPYNGGTNYNQKFEDKATLTVDKSSNTAYMDLLSLTSEDSAVYYCARRDWDYFDYWGQGTTLTVSS VL: DVVMTQSQKFLSTSAGDRVSISCKASQNVGTALAWYQQKPGQSPKLLIYSASNRNTGVPDRFTGRGFGTDFTLTISNMQSEDLADYFCQQYSSYPYTFGGGTRLEIKR
